# Among all 300,000 compounds or so, about 3,700 (1.2%) were called active. This list was built around the results that the source calls inconclusive (neither active nor inactive); the mix of calls is not that of the screen. Calls follow the shape of the full dose curve; tested in HEK293 cells. A potency beside an inconclusive call is a rough fit, not a confirmed value.
# Test: qHTS for Inhibitors of binding or entry into cells for Lassa Virus; also: nearly all actives have a fitted effect of over 50% in size
# Conditions: Lassa virus pseudotype entry inhibition, cell reporter; activity change, negative = inhibition: at 37.9 µM (top of the series) unless noted
# % is scaled to controls: 0 for no effect and ±100 for the full control effect; potency is read from the fitted curve at half-maximal effect.
Structure (SMILES),"activity change, negative = inhibition",Potency
CCN(CC)S(=O)(=O)c1ccc(/C=C/C(=O)OCC(=O)Nc2cccc3ccccc23)cc1,inactive: 2.05%,
Cc1ccccc1C(=O)N(CC(=O)Nc1sc(C)c(C)c1C(N)=O)C1CCCC1,,"inconclusive: 35.5 µM [inhibitor, single point]"
CC(=O)c1sc(-c2ccccc2)nc1C,inactive: 2.84%,
OC1CCCN(c2c3c(nc4cc(-c5cccc(F)c5)nn24)CCCC3)C1 (stereo not drawn),,"inconclusive: 25.1 µM [inhibitor, single point]"
O=C(c1cccc(NS(=O)(=O)c2cccc(F)c2)c1)N1CCN(c2ccccc2)CC1,,"inconclusive: 10 µM [inhibitor, partial curve, poor fit]"
Cc1nc(C(=O)N2CCCC(Nc3ccc(C)c(C)c3)C2)cs1 (stereo not drawn),inactive: 7.4% [at 46.1 µM],
COc1ccc(C)cc1NC(=O)CN1C(=O)CCc2cc(S(=O)(=O)N3CCOCC3)ccc21,,"inconclusive: 2 µM [activator, partial curve, poor fit]"
Cc1sc2ncnc(Sc3nnnn3-c3ccc(Cl)cc3)c2c1C,,active: 20.6 µM
Cc1nc2nc(SCC(=O)NCCc3ccc(Cl)cc3)nn2c(C)c1Cc1c(F)cccc1Cl,inactive: 18.9% [at 46.1 µM],
Cc1cc(C)nc(N2CCCC(C(=O)Nc3ccc4c(c3)OCO4)C2)n1 (stereo not drawn),,"inconclusive: 32.6 µM [activator, single point]"
COc1cc2c(cc1OC)CN(c1ccc([N+](=O)[O-])cc1Cl)CC2,inactive: -8.42%,
N#Cc1c2n(c3c(=O)[nH]cnc13)CCCC2,inactive: 10.5%,
CCSc1nc2c(sc3ccccc32)c(=O)n1C(C)C,inactive: 4%,
Cc1csc2nc(COC(=O)c3ccc(NC(=O)c4ccccc4Br)cc3)cc(=O)n12,,"inconclusive: 0.562 µM [inhibitor, full curve, poor fit]"
COc1ccc(OC)c(NC(=O)CN(c2ccccc2OC)S(=O)(=O)c2ccc(C)cc2)c1,,"inconclusive: 4.47 µM [inhibitor, full curve]"
O=C(Nc1cccc(C(=O)OCc2cc(=O)n3ccsc3n2)c1)c1ccc(F)cc1,,"inconclusive: 35.5 µM [activator, single point]"
O=S(=O)(NC1CC1)c1ccc(S(=O)(=O)N(Cc2ccccn2)C2CCCC2)cc1,,"inconclusive: 13 µM [inhibitor, partial curve, poor fit]"
Cc1oc(-c2cccs2)nc1CN1CCN(Cc2ccc(F)c(F)c2)C(CCO)C1 (stereo not drawn),,"inconclusive: 35.5 µM [inhibitor, partial curve, poor fit]"
CC(=O)c1cc2c(cc1NC(=O)c1ccco1)OCCO2,,"inconclusive: 3.16 µM [activator, partial curve, poor fit]"
COc1ccc(-n2cnc3cc(C(=O)NCCC4=CCCCC4)ccc32)cc1,,"inconclusive: 6.31 µM [inhibitor, full curve, poor fit]"
COc1cc(/C=N/NC(=O)C2COc3ccccc3O2)ccc1O (stereo not drawn),,"inconclusive: 0.708 µM [inhibitor, full curve, poor fit]"
CCOc1cc(C2NC(=O)NC(C)=C2C(=O)OC(C)CC)cc(Br)c1O (stereo not drawn),,"inconclusive: 14.6 µM [inhibitor, partial curve]"
COc1ccccc1-c1nnc(SCC(=O)Nc2ccc(Cl)cc2Cl)o1,inactive: 5.87%,

Structure (SMILES),"activity change, negative = inhibition",Potency
CCc1nnc(NC(=O)c2cccc(S(=O)(=O)N(C)c3ccc(OC)cc3)c2)s1,,"inconclusive: 11.2 µM [inhibitor, partial curve, poor fit]"
COc1ccc(N(C(=O)/C=C/c2ccccc2)C2=CC3CCC(C2)N3C)cc1 (stereo not drawn),,"inconclusive: 35.5 µM [inhibitor, single point]"
C/C(=N\N1CCCCCC1)c1c(O)n(-c2ccccc2)c(=O)[nH]c1=O,,"inconclusive: 8.91 µM [inhibitor, partial curve]"
COCCNC(=O)COc1ccc(Oc2ccccc2)cc1,,"inconclusive: 2.31 µM [activator, partial curve, poor fit]"
CC(C)CCOCC(=O)Nc1cccc(C(=O)O)c1,,"inconclusive: 20.6 µM [inhibitor, single point]"
CC1CCCCN1C(=O)c1cc(-c2ccc3c(c2)OCO3)on1 (stereo not drawn),,"inconclusive: 11.2 µM [inhibitor, partial curve, poor fit]"
CCN(c1ccc(C)cc1C)S(=O)(=O)c1nnc(NC(=O)c2ccc(F)cc2)s1,inactive: 3.17% [at 46.1 µM],
CCOc1ccc(S(=O)(=O)NCc2ccc(F)cc2)c2cccnc12,inactive: 1.75%,
O=C(N/N=C1\CCCc2ccccc21)c1ccccc1[N+](=O)[O-],,"inconclusive: 1.3 µM [inhibitor, single point]"
CC1CN(CCCCOc2cccc(Oc3ccccc3)c2)CC(C)O1 (stereo not drawn),,"inconclusive: 7.08 µM [inhibitor, full curve]"
Cc1ccc2nc(NC(=O)CSc3nnc(C)c(=O)n3N)sc2c1,,"inconclusive: 23.1 µM [activator, partial curve, poor fit]"
COc1ccc(N2CCN(CC(O)COCCOc3ccc(Br)cc3)CC2)cc1 (stereo not drawn),,"inconclusive: 20.6 µM [inhibitor, partial curve, poor fit]"
COC(=O)c1ccc(NC(=O)CNC(=O)C2CCCCC2)cc1,,"inconclusive: 20.6 µM [inhibitor, single point]"
CC1CCC(C(C)C)C(OC(=O)COC(=O)c2ccc(=O)[nH]c2)C1 (stereo not drawn),inactive: -16.1%,
CN(/C(=N/S(=O)(=O)c1cccs1)c1ccccc1)c1ccc(O)cc1,,"inconclusive: 1.26 µM [inhibitor, single point]"
Nc1ncc(S(=O)(=O)N2CCN(c3ccccc3)CC2)cn1,inactive: 0.844% [at 46.1 µM],
O=C1CCC(=O)N1CNc1ccccn1,,"inconclusive: 35.5 µM [activator, single point]"
Cc1cc(C)c2cc(CN(CCCN(C)C)C(=S)NCc3ccccc3)c(=O)[nH]c2c1,,"inconclusive: 35.5 µM [inhibitor, single point]"
COc1ccc(C(=O)c2c[nH]c(C(=O)NCCCN3CCOCC3)c2)cc1,,"inconclusive: 0.355 µM [inhibitor, full curve, poor fit]"
Cc1cc(C)cc(NC(=O)Cn2c(C)cc(C)c(C#N)c2=O)c1,inactive: 8.65% [at 46.1 µM],
CSc1cccc(CN2CCCC(C(=O)Nc3cccc(-n4cccn4)c3)C2)c1 (stereo not drawn),inactive: -15.1%,
CC(=O)N1CCc2cc(CNS(=O)(=O)c3ccccc3C(F)(F)F)ccc21,inactive: -0.676% [at 46.1 µM],
Cc1nn(CC(=O)NCc2ccco2)c(=O)c2nn(-c3ccccc3)c(C)c12,inactive: 10.6% [at 46.1 µM],

# Full records from above:
# `Cc1nc2nc(SCC(=O)NCCc3ccc(Cl)cc3)nn2c(C)c1Cc1c(F)cccc1Cl` is entered as activity change, negative = inhibition: inactive: 18.9% [at 46.1 µM]
# `O=C(c1cccc(NS(=O)(=O)c2cccc(F)c2)c1)N1CCN(c2ccccc2)CC1` is entered as Potency: inconclusive: 10 µM [inhibitor, partial curve, poor fit]
# `Cc1cc(C)c2cc(CN(CCCN(C)C)C(=S)NCc3ccccc3)c(=O)[nH]c2c1` is entered as Potency: inconclusive: 35.5 µM [inhibitor, single point]
# `N#Cc1c2n(c3c(=O)[nH]cnc13)CCCC2` is entered as activity change, negative = inhibition: inactive: 10.5%

# Next part

Structure (SMILES),"activity change, negative = inhibition",Potency
Cc1ccc(-c2nnc(NC3CCCCC3)c3ccccc23)cc1S(=O)(=O)N1CCN(C)CC1,,"inconclusive: 29.1 µM [inhibitor, single point]"
COc1ccc(C(=O)N2CCOC2CNC(=O)C(=O)NCCc2ccc(OC)c(OC)c2)cc1 (stereo not drawn),,"inconclusive: 1.41 µM [inhibitor, partial curve, poor fit]"
Cc1ccc(NC(=O)CSc2ccccn2)cc1S(=O)(=O)N1CCOCC1,,"inconclusive: 35.5 µM [inhibitor, single point]"
Cc1cccc(OCc2nnc(SCC(=O)N3CCCC3)n2C)c1,inactive: -6.89%,
C/C(=N\NC(=O)c1cccc(N/N=C(\C)c2ccccc2)c1)c1ccccc1,inactive: 0.338%,
COc1ccc(C(=O)N/N=C/c2c[nH]c3ccccc23)cc1,,"inconclusive: 35.5 µM [inhibitor, single point]"
CCSc1nnc2c(n1)OC=Nc1ccc(Br)cc1-2,inactive: 2.17%,
O=C(Cn1cnc([N+](=O)[O-])c1)Nc1cc(Oc2ccc(Cl)cc2Cl)cc([N+](=O)[O-])c1,,"inconclusive: 31.6 µM [inhibitor, single point]"
COC(=O)C1=CN(Cc2ccccc2)C=C(C(=O)OC)C1c1cc(F)ccc1F,,active: 7.08 µM
C=CCC(Nc1ccccc1)C12C=CC(O1)C(C(=O)OC)=C2C(=O)OC (stereo not drawn),,"inconclusive: 35.5 µM [inhibitor, single point]"
O=C(NCc1ccccc1)N1CCN(c2ccc(Cl)c(Cl)c2)CC1,,"inconclusive: 4.47 µM [inhibitor, partial curve, poor fit]"
O=C(NCc1ccccc1)C(c1ccccc1F)N(CC1CCCO1)C(=O)c1ccccn1 (stereo not drawn),,"inconclusive: 7.08 µM [inhibitor, partial curve, poor fit]"
Cc1cc(-n2c(C)nc3ccccc3c2=O)ccc1NC(=O)c1cccc([N+](=O)[O-])c1C,,"inconclusive: 6.31 µM [inhibitor, full curve, poor fit]"
CC(C)NC(=O)c1ccccc1NC(=O)CCS(=O)(=O)Cc1ccccc1,,"inconclusive: 7.3 µM [activator, partial curve, poor fit]"
O=[N+]([O-])c1ccc(S(=O)(=O)NCCCc2ccccc2)cc1,inactive: 11.2% [at 46.1 µM],
CC(C)CN1C(=O)/C(=C/c2ccco2)NC1=S,,"inconclusive: 5.62 µM [inhibitor, single point]"
O=C(Nc1ccc(F)c(Cl)c1)C1CCN(c2ncccn2)CC1,inactive: 3.3% [at 46.1 µM],
O=C(COc1ccc(F)cc1)NCc1ccc2c(c1)CCN2C(=O)c1ccc(F)cc1,,"inconclusive: 10 µM [inhibitor, partial curve, poor fit]"
CCCN1Cc2cccc(C(=O)NC(CC(=O)OCC)c3ccc(OC(C)C)cc3)c2C1=O (stereo not drawn),,"inconclusive: 12.6 µM [inhibitor, partial curve, poor fit]"
CCOC(=O)c1ccc(N/C=C/C(=O)c2ccco2)cc1,,"inconclusive: 20.6 µM [inhibitor, single point]"
CCN1c2ccccc2-c2nc(SCC(=O)Nc3cc(C)c(Cl)cc3OC)ncc2S1(=O)=O,inactive: -18.1% [at 46.1 µM],
CS(=O)(=O)N(CC(=O)NCCC1=CCCCC1)c1ccc2c(c1)OCO2,,"inconclusive: 1.16 µM [inhibitor, partial curve, poor fit]"
